Laboratory results reported in PubChem BioAssay AID624297 (National Center for Advancing Translational Sciences (NCATS), 2012).
The campaign covered roughly 340,000 compounds. About 6,200 (1.8%) were called active. Inconclusive results, whose numbers are uncertain, are shown with a selection of clear calls. The call rests on the fitted dose curve; in most records, active means well fitted activation curve with a large enough effect; inconclusive means small, poorly fitted or top-dose-only effect; inactive means no such curve, though single readings can be large or run the other way. Potencies beside an inconclusive call are fits to weak or partial responses and may not hold up.

Assay: A quantitative high throughput screen for small molecules that induce DNA re-replication in SW480 colon adenocarcinoma cells. Further: nearly all actives have a fitted effect of over 55% in size. On re-replication activation: % of control where 0% means no effect.
Conditions: Hoechst DNA content imaging, 48 h; re-replication activation: at 46.1 µM (top of the series)
In short: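 Compounds, transferred as 23 nL by pin tool, were incubated with cells for 48 hr; DNA content per nucleus was then quantified by Hoechst staining and fluorescence plate imaging.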
Potency means the concentration at half of the fitted maximal effect.

Question: With C/C(=N\NC(=O)c1ccco1)c1ccc(NC(=O)c2ccccc2)cc1 as the molecule, how does the Potency read?
Answer: The Potency was inconclusive: 29.1 µM [activator, single point].

Question: With CN(c1ccccc1)S(=O)(=O)c1cccc(C(=O)Nc2ccc3c(c2)CCC3)c1 as the molecule, how does the Potency read?
Answer: The Potency was inconclusive: 29.1 µM [activator, partial curve, poor fit].

Question: For COc1ccc([C@H]2CC(=O)C=C(c3cc(Cl)ccc3OC)C2)cc1, which Potency is on record?
Answer: The Potency was inconclusive: 29.1 µM [activator, single point].

Question: Which Potency does the source give for CCOCCCNc1nc(C(F)(F)F)nc2c1nnn2Cc1ccccc1Cl here?
Answer: The Potency was inconclusive: 3.26 µM [activator, partial curve, poor fit].

Question: For CCC(C)(C)NC(=O)/C=C/c1cnc2ccccc2n1, which Potency is on record?
Answer: The Potency was inconclusive: 29.1 µM [activator, single point].

Question: Which Potency does the source give for CCN(C(=O)CSc1cc(C)c2cccc(C)c2n1)C1CCS(=O)(=O)C1 (stereo not drawn) here?
Answer: Its Potency is inconclusive: 0.82 µM [activator, partial curve, poor fit].

Question: For CCOc1ccc(C(=O)N(c2ccccn2)C2CCCCC2)cc1, which Potency is on record?
Answer: The Potency was inconclusive: 20.6 µM [activator, single point].

Question: Which Potency does the source give for Cc1ccc(N2C(=O)[C@@H]3[C@H](C2=O)C2CCCN2[C@@H]3C(=O)c2ccccc2)cc1 (stereo partly drawn) here?
Answer: The Potency was inconclusive: 25.9 µM [activator, single point].

Question: Which Potency does the source give for Cc1nc(Nc2cnc(/C=C/c3cc(C(=O)Nc4cccc(C(F)(F)F)c4)ccc3C)cn2)cc(N2CCNCC2)n1 here?
Answer: The Potency was active: 16.4 µM.

Question: With COc1ccc(/C=C2\SC(=O)N(CC(=O)Nc3cccc(C)c3)C2=O)cc1O as the molecule, how does the Potency read?
Answer: Its Potency is inconclusive: 29.1 µM [activator, single point].

Question: Which Potency does the source give for Cc1nc2c(cnn2CCO)c(=O)[nH]1 here?
Answer: Its Potency is “inactive”.

Question: Which Potency does the source give for CSc1ccc(S(=O)(=O)N2CCC(C(=O)NC3CC3)CC2)cc1 here?
Answer: Its Potency is “inactive”.

Question: Which Potency does the source give for CC1CC(C)CN(C(=O)CN2C(=O)NC3(CCCCCCC3)C2=O)C1 (stereo not drawn) here?
Answer: Its Potency is “inactive”.

Question: For Cc1cc(C)c(NC(=O)CSc2nnc(CN3CCOCC3)n2C)c(C)c1, which Potency is on record?
Answer: Its Potency is active: 29.1 µM.

Question: With COc1ccc(C(=O)NNC2CC(=O)N(Cc3ccc(Cl)cc3)C2=O)cc1OC (stereo not drawn) as the molecule, how does the Potency read?
Answer: Its Potency is “inactive”.

Question: With O=C(CC(=O)c1ccccn1)c1ccccc1 as the molecule, how does the Potency read?
Answer: The Potency was inconclusive: 29.1 µM [activator, single point].

Question: For CC(=O)Nc1ccc(S(=O)(=O)Oc2ccccc2N2CCCCC2)cc1, which Potency is on record?
Answer: The Potency was inconclusive: 20.6 µM [activator, single point].

Question: For NC(=O)c1ccc(Cn2c(C(=O)c3cc(Cl)c(N)c(Cl)c3)c3ccccc3[n+]2[O-])cc1, which Potency is on record?
Answer: The Potency was inconclusive: 20.6 µM [activator, single point].

Question: For N#C/C(=C(/O)c1ccc([N+](=O)[O-])s1)c1nc2ccccc2[nH]1, which Potency is on record?
Answer: The Potency was inconclusive: 14.6 µM [activator, single point].

Question: With COc1ccc(/C=N/Nc2cc(N(C)C)nc(N(C)C)n2)cc1 as the molecule, how does the Potency read?
Answer: Its Potency is inconclusive: 20.6 µM [activator, partial curve, poor fit].

Question: Which Potency does the source give for Cn1c(=O)c2c(ncn2CC(=O)N/N=C/C=C/c2ccccc2[N+](=O)[O-])n(C)c1=O here?
Answer: The Potency was inconclusive: 13 µM [activator, partial curve, poor fit].

Question: With COc1ccc(NS(=O)(=O)c2cc(C(=O)N3CCN(C(C)=O)CC3)ccc2Cl)cc1 as the molecule, how does the Potency read?
Answer: The Potency was “inactive”.

Question: Which Potency does the source give for O=S(=O)(c1ccc(N2CC=C(c3ccccc3)CC2)nc1)N1CCCC1 here?
Answer: Its Potency is inconclusive: 23.1 µM [activator, single point].

Question: For CCN1CCN(c2ccc(S(=O)(=O)N3CCOCC3)cc2NC(=O)c2cc(Cl)nc3ccccc23)CC1, which Potency is on record?
Answer: Its Potency is “inactive”.

Question: With COc1ccc(CN2CCN(C3CCC3)CC2CCO)c(C)c1C (stereo not drawn) as the molecule, how does the Potency read?
Answer: Its Potency is inconclusive: 18.4 µM [activator, single point].

Question: Which Potency does the source give for c1ccc2sc(Sc3ncnc4sccc34)nc2c1 here?
Answer: Its Potency is inconclusive: 20.6 µM [activator, single point].

Question: Which Potency does the source give for COc1ccc2nc(SCC(=O)NCc3ccccc3)[nH]c2c1 here?
Answer: The Potency was inconclusive: 7.31 µM [activator, partial curve, poor fit].

Question: For Fc1cccc(CCN2C(=S)NC[C@@H]2Cc2ccccc2)c1, which Potency is on record?
Answer: Its Potency is “inactive”.

Question: For CCn1c2ccccc2c2cc(NC(=O)CNC)ccc21, which Potency is on record?
Answer: The Potency was inconclusive: 25.9 µM [activator, single point].

Question: Which Potency does the source give for O=C(N/N=C/c1ccccn1)c1ccc([N+](=O)[O-])cc1Cl here?
Answer: Its Potency is “inactive”.

Question: For Nc1ccccc1-c1nc2ccccc2[nH]c1=O, which Potency is on record?
Answer: The Potency was inconclusive: 0.461 µM [activator, partial curve, poor fit].

Question: With COc1ccc(C2OC(=O)C(C)(C)C(=O)C2(C)C)cc1OC (stereo not drawn) as the molecule, how does the Potency read?
Answer: The Potency was inconclusive: 3.66 µM [activator, partial curve, poor fit].

Question: With O=C(NC(=S)N(CCc1ccccc1)CCc1ccccc1)c1ccco1 as the molecule, how does the Potency read?
Answer: Its Potency is inconclusive: 25.9 µM [activator, single point].

Question: Which Potency does the source give for Cc1cccc(OCC(=O)NCC(=O)N/N=C/c2ccc(O)cc2O)c1 here?
Answer: Its Potency is inconclusive: 6.51 µM [activator, full curve].

Question: Which Potency does the source give for Cc1csc2ncnc(NCCc3ccccn3)c12 here?
Answer: Its Potency is inconclusive: 3.26 µM [activator, single point].

Question: Which Potency does the source give for Cc1cc(C)cc(NC(=O)Cn2c(SCc3cc(C)ccc3C)nc3ccncc32)c1 here?
Answer: Its Potency is inconclusive: 29.1 µM [activator, single point].

Question: For CCOP(=O)(Cc1ccc(C(C)(C)CC(C)=O)o1)OCC, which Potency is on record?
Answer: The Potency was inconclusive: 2.31 µM [activator, partial curve, poor fit].

Question: With CN1CCCC(CC2Oc3ccccc3Sc3ccccc32)C1 (stereo not drawn) as the molecule, how does the Potency read?
Answer: Its Potency is inconclusive: 20.6 µM [activator, single point].

Question: Which Potency does the source give for COc1cc(NCC(=O)Nc2cccc(S(=O)(=O)N3CCCCC3)c2)cc(OC)c1OC here?
Answer: The Potency was inconclusive: 1.84 µM [activator, partial curve, poor fit].

Question: For CCc1ccccc1NC(=O)CN(C)C(=O)Cn1ncc(Cl)c(Cl)c1=O, which Potency is on record?
Answer: The Potency was active: 6.51 µM.

Question: For Cc1ccccc1OCC(=O)NNC(=S)NC(=O)c1ccco1, which Potency is on record?
Answer: Its Potency is inconclusive: 17.8 µM [activator, single point].

Question: Which Potency does the source give for CCc1nc(SCC(=O)Nc2ccccc2Cl)n[nH]1 here?
Answer: The Potency was active: 9.2 µM.

Question: With Oc1ccc(CN2CCN(c3ncccn3)CC2)cc1 as the molecule, how does the re-replication activation read?
Answer: The re-replication activation was inconclusive: 47.6% [activator].

Question: With Cc1nc(Nc2c(Cl)cccc2Cl)sc1C(=O)Nc1ccccc1 as the molecule, how does the Potency read?
Answer: Its Potency is inconclusive: 18.4 µM [activator, single point].

Question: With CCCCC(=O)NC(c1cccc([N+](=O)[O-])c1)c1c(OC(C)=O)ccc2ccccc12 (stereo not drawn) as the molecule, how does the Potency read?
Answer: Its Potency is inconclusive: 29.1 µM [activator, partial curve, poor fit].

Question: For COc1c(F)c(F)c(C(=O)Nc2ccc(N3CCN(Cc4ccccc4)CC3)cc2)c(F)c1F, which Potency is on record?
Answer: The Potency was inconclusive: 35.5 µM [activator, partial curve, poor fit].

Question: For COc1ccc2c(c1)c(CC(=O)Nc1ccc(C)cc1)c(C)n2C(=O)c1ccc(Cl)cc1, which Potency is on record?
Answer: Its Potency is “inactive”.

Question: For O=C(CSc1nnc(COc2ccc(Cl)cc2)o1)Nc1ccc(N2CCOCC2)cc1, which Potency is on record?
Answer: Its Potency is “inactive”.

Question: With C/C=C(\C)C(=O)OC(C)(C)[C@H]1Cc2cc3ccc(=O)oc3cc2O1 as the molecule, how does the Potency read?
Answer: The Potency was “inactive”.

Question: Which Potency does the source give for CN(C)c1ccc(/C=C(\C#N)c2ccccc2)cc1 here?
Answer: The Potency was active: 3.66 µM.

Question: With CC1CCN(CCCNC(=O)C2CCCN(c3ncnc4c3nc3n4CCCCC3)C2)CC1 (stereo not drawn) as the molecule, how does the Potency read?
Answer: The Potency was inconclusive: 14.1 µM [activator, single point].

Question: For N=C1/C(=C/c2ccc(-c3cccc(C(=O)O)c3)o2)C(=O)N=C2SC(CC(=O)N3CCOCC3)=NN12, which Potency is on record?
Answer: The Potency was inconclusive: 29.1 µM [activator, single point].

Question: With CCN(CC)S(=O)(=O)c1ccc(C)c(NC(=O)CN2C(=O)NC3(CCCC3)C2=O)c1 as the molecule, how does the Potency read?
Answer: Its Potency is inconclusive: 29.1 µM [activator, single point].

Question: Which Potency does the source give for Oc1ccc2ccccc2c1N=Nc1ccccc1F here?
Answer: The Potency was inconclusive: 18.4 µM [activator, single point].

Question: With Cc1ccc(CNC(=O)c2ccc([N+](=O)[O-])o2)cc1 as the molecule, how does the Potency read?
Answer: Its Potency is inconclusive: 16.4 µM [activator, single point].

Question: Which Potency does the source give for CCCCc1c(C)nc(Nc2ccc(OC)cc2)[nH]c1=O here?
Answer: The Potency was inconclusive: 2.59 µM [activator, single point].

Question: With O=C(CCl)c1ccc2c(c1)CCN2C(=O)C1CCCCC1 as the molecule, how does the Potency read?
Answer: The Potency was inconclusive: 18.4 µM [activator, single point].

Question: With COc1ccc(S(=O)(=O)N2CCOCC2)cc1NC(=O)COc1ccc2c(C)cc(=O)oc2c1 as the molecule, how does the Potency read?
Answer: Its Potency is inconclusive: 20.6 µM [activator, single point].

Question: Which Potency does the source give for COc1ccccc1Nc1nc(-c2c(C)[nH]c3ccccc23)cs1 here?
Answer: The Potency was active: 10.3 µM.

Question: Which Potency does the source give for CCc1cc2cc3c(cc2nc1SCC(=O)Nc1nnc(C)s1)OCCO3 here?
Answer: The Potency was active: 16.4 µM.

Question: With CN(CC(=O)N1CCN(c2cccc(Cl)c2)CC1)S(=O)(=O)c1cccs1 as the molecule, how does the Potency read?
Answer: The Potency was inconclusive: 29.1 µM [activator, single point].

Question: For COc1ccc(N2C(=O)CSC2c2cccs2)cc1 (stereo not drawn), which Potency is on record?
Answer: Its Potency is active: 18.4 µM.

Question: With CCOc1ccc(Cl)cc1S(=O)(=O)N1CCC(C(=O)NC2CC2)CC1 as the molecule, how does the Potency read?
Answer: The Potency was “inactive”.

Question: Which Potency does the source give for NC(=O)c1ccc(-c2ncc(-c3ccccc3)o2)cc1 here?
Answer: The Potency was “inactive”.

Question: Which Potency does the source give for CCN1CCN(c2ccc(S(=O)(=O)N3CCOCC3)cc2NC(=O)CC(NC(C)=O)c2ccccc2)CC1 (stereo not drawn) here?
Answer: Its Potency is “inactive”.

Question: For C=CCSc1nc2ccccc2n1C(=O)/C=C/c1cc(OC)c(OC)c(OC)c1, which Potency is on record?
Answer: The Potency was inconclusive: 3.26 µM [activator, full curve].

Question: Which Potency does the source give for CC1(C)OC(=O)N(c2ccccc2)C12C=Cc1c(ccc3ccccc13)O2 (stereo not drawn) here?
Answer: Its Potency is inconclusive: 29.1 µM [activator, single point].

Question: Which Potency does the source give for CN(C)CCNC(=O)c1sc2nc(-c3ccccc3)cc(C(F)(F)F)c2c1N here?
Answer: Its Potency is inconclusive: 20.6 µM [activator, single point].
